In the supplement of paper PMC8728848:
The list shows a part of the results.

Key:
Assay in all cases: glycan array binding signal (z-score within array); higher = stronger binding
Settings in all cases: glycan notation: IUPAC condensed, linker removed
[1] = target: Fuc(a1-2)[Gal(a1-3)]Gal(b1-4)GlcNAc(b1-2)Man(a1-3)[Fuc(a1-2)[Gal(a1-3)]Gal(b1-4)GlcNAc(b1-2)Man(a1-6)]Man(b1-4)GlcNAc(b1-4)[Fuc(a1-6)]GlcNAc
Outline: (§1)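 Glycan array data came from 3228 arrays in the Consortium for Functional Glycomics database, and only arrays with an available protein sequence were kept. Glycan names were put into IUPAC-condensed notation, and columns mapping to the same glycan were averaged. The binding signal is a within-array Z-score, averaged across arrays of one protein sequence run at different concentrations or buffers and across linkers. A negative Z-score can be read as non-binding.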

[2] = target: Fuc(a1-2)[Gal(a1-3)]Gal(b1-4)GlcNAc(b1-3)GalNAc
Outline: as §1

[3] = target: Fuc(a1-2)[Gal(a1-3)]Gal(b1-4)GlcNAc(b1-3)[Fuc(a1-2)[Gal(a1-3)]Gal(b1-4)GlcNAc(b1-6)]GalNAc
Outline: as §1

[4] = target: Fuc(a1-2)[Gal(a1-3)]Gal(b1-4)GlcNAc(b1-6)GalNAc
Outline: as §1

[5] = target: Fuc(a1-2)[Gal(a1-3)]Gal(b1-4)[Fuc(a1-3)]Glc
Outline: as §1

[6] = target: Fuc(a1-2)[Gal(a1-3)]Gal(b1-4)[Fuc(a1-3)]GlcNAc
Outline: as §1

[7] = target: Fuc(a1-2)[Gal(a1-3)]Gal(b1-4)[Fuc(a1-3)]GlcNAc(b1-3)GalNAc
Outline: as §1

[8] = target: Fuc(a1-2)[Gal(a1-4)]Gal(b1-4)GlcNAc
Outline: as §1

[9] = target: Fuc(a1-2)[GalNAc(a1-3)]Gal
Outline: as §1

[10] = target: Fuc(a1-2)[GalNAc(a1-3)]Gal(b1-3)GalNAc(a1-3)[Fuc(a1-2)]Gal(b1-4)GlcNAc
Outline: as §1

[11] = target: Fuc(a1-2)[GalNAc(a1-3)]Gal(b1-3)GalNAc(b1-3)Gal(a1-4)Gal(b1-4)Glc
Outline: as §1

[12] = target: Fuc(a1-2)[GalNAc(a1-3)]Gal(b1-3)GlcNAc
Outline: as §1

[13] = target: Fuc(a1-2)[GalNAc(a1-3)]Gal(b1-3)GlcNAc(b1-2)Man(a1-3)[Fuc(a1-2)[GalNAc(a1-3)]Gal(b1-3)GlcNAc(b1-2)Man(a1-6)]Man(b1-4)GlcNAc(b1-4)GlcNAc
Outline: as §1

[14] = target: Fuc(a1-2)[GalNAc(a1-3)]Gal(b1-3)GlcNAc(b1-2)Man(a1-3)[Fuc(a1-2)[GalNAc(a1-3)]Gal(b1-3)GlcNAc(b1-2)Man(a1-6)]Man(b1-4)GlcNAc(b1-4)[Fuc(a1-6)]GlcNAc
Outline: as §1

[15] = target: Fuc(a1-2)[GalNAc(a1-3)]Gal(b1-3)GlcNAc(b1-3)GalNAc
Outline: as §1

[16] = target: Fuc(a1-2)[GalNAc(a1-3)]Gal(b1-3)GlcNAc(b1-6)GalNAc
Outline: as §1

[17] = target: Fuc(a1-2)[GalNAc(a1-3)]Gal(b1-4)Glc
Outline: as §1

[18] = target: Fuc(a1-2)[GalNAc(a1-3)]Gal(b1-4)GlcNAc
Outline: as §1

[19] = target: Fuc(a1-2)[GalNAc(a1-3)]Gal(b1-4)GlcNAc(b1-2)Man
Outline: as §1

[20] = target: Fuc(a1-2)[GalNAc(a1-3)]Gal(b1-4)GlcNAc(b1-2)Man(a1-3)[Fuc(a1-2)[GalNAc(a1-3)]Gal(b1-4)GlcNAc(b1-2)Man(a1-6)]Man(b1-4)GlcNAc(b1-4)GlcNAc
Outline: as §1

[21] = target: Fuc(a1-2)[GalNAc(a1-3)]Gal(b1-4)GlcNAc(b1-2)Man(a1-3)[Fuc(a1-2)[GalNAc(a1-3)]Gal(b1-4)GlcNAc(b1-2)Man(a1-6)]Man(b1-4)GlcNAc(b1-4)[Fuc(a1-6)]GlcNAc
Outline: as §1

[22] = target: Fuc(a1-2)[GalNAc(a1-3)]Gal(b1-4)GlcNAc(b1-3)Gal(b1-4)GlcNAc
Outline: as §1

[23] = target: Fuc(a1-2)[GalNAc(a1-3)]Gal(b1-4)GlcNAc(b1-3)Gal(b1-4)GlcNAc(b1-3)Gal(b1-4)GlcNAc
Outline: as §1

[24] = target: Fuc(a1-2)[GalNAc(a1-3)]Gal(b1-4)GlcNAc(b1-3)GalNAc
Outline: as §1

[25] = target: Fuc(a1-2)[GalNAc(a1-3)]Gal(b1-4)GlcNAc(b1-3)[Fuc(a1-2)[GalNAc(a1-3)]Gal(b1-4)GlcNAc(b1-6)]GalNAc
Outline: as §1

[26] = target: Fuc(a1-2)[GalNAc(a1-3)]Gal(b1-4)GlcNAc(b1-6)GalNAc
Outline: as §1

[27] = target: Fuc(a1-2)[GalNAc(a1-3)]Gal(b1-4)[Fuc(a1-3)]GlcNAc
Outline: as §1

[28] = target: Fuc(a1-2)[GalNAc(a1-3)]Gal(b1-4)[Fuc(a1-3)]GlcNAc(b1-3)GalNAc
Outline: as §1

[29] = target: Fuc(a1-2)[GalNAc(a1-4)]Gal(b1-4)GlcNAc
Outline: as §1

[30] = target: Fuc(a1-2)[GalNAc(b1-3)]Gal
Outline: as §1

Fuc(a1-3)GlcNAc = target: Fuc(a1-3)GlcNAc
Outline: as §1

[31] = target: Fuc(a1-3)[Gal(b1-4)]Glc6S
Outline: as §1

[32] = target: Fuc(a1-3)[Gal(b1-4)]GlcNAc
Outline: as §1

[33] = target: Fuc(a1-3)[Gal(b1-4)]GlcNAc(b1-2)Man
Outline: as §1

[34] = target: Fuc(a1-3)[Gal(b1-4)]GlcNAc(b1-2)Man(a1-3)[Fuc(a1-3)[Gal(b1-4)]GlcNAc(b1-2)Man(a1-6)]Man(b1-4)GlcNAc(b1-4)GlcNAc
Outline: as §1

[35] = target: Fuc(a1-3)[Gal(b1-4)]GlcNAc(b1-2)Man(a1-3)[Fuc(a1-3)[Gal(b1-4)]GlcNAc(b1-2)Man(a1-6)]Man(b1-4)GlcNAc(b1-4)[Fuc(a1-6)]GlcNAc
Outline: as §1

[36] = target: Fuc(a1-3)[Gal(b1-4)]GlcNAc(b1-3)Gal(b1-3)[Fuc(a1-4)]GlcNAc
Outline: as §1

[37] = target: Fuc(a1-3)[Gal(b1-4)]GlcNAc(b1-3)Gal(b1-4)[Fuc(a1-3)]GlcNAc
Outline: as §1

[38] = target: Fuc(a1-3)[Gal(b1-4)]GlcNAc(b1-3)Gal(b1-4)[Fuc(a1-3)]GlcNAc(b1-3)Gal(b1-4)[Fuc(a1-3)]GlcNAc
Outline: as §1

[39] = target: Fuc(a1-3)[Gal(b1-4)]GlcNAc(b1-3)GalNAc
Outline: as §1

[40] = target: Fuc(a1-3)[Gal(b1-4)]GlcNAc(b1-6)GalNAc
Outline: as §1

[41] = target: Fuc(a1-3)[Gal(b1-4)]GlcNAc(b1-6)[Gal(b1-3)GlcNAc(b1-3)]Gal(b1-4)Glc
Outline: as §1

[42] = target: Fuc(a1-3)[Gal(b1-4)]GlcNAc6S
Outline: as §1

[43] = target: Fuc(a1-3)[Gal3S(b1-4)]Glc
Outline: as §1

[44] = target: Fuc(a1-3)[Gal3S(b1-4)]GlcNAc
Outline: as §1

[45] = target: Fuc(a1-3)[Gal3S(b1-4)]GlcNAc6S
Outline: as §1

[46] = target: Fuc(a1-3)[GalNAc(b1-4)]GlcNAc
Outline: as §1

[47] = target: Fuc(a1-3)[GalNAc(b1-4)]GlcNAc6S
Outline: as §1

Fuc(a1-4)GlcNAc = target: Fuc(a1-4)GlcNAc
Outline: as §1

Fuc(b1-3)GlcNAc = target: Fuc(b1-3)GlcNAc
Outline: as §1

Gal(a1-2)Gal = target: Gal(a1-2)Gal
Outline: as §1

Gal(a1-3)Gal = target: Gal(a1-3)Gal
Outline: as §1

Gal(a1-3)Gal(b1-3)GlcNAc = target: Gal(a1-3)Gal(b1-3)GlcNAc
Outline: as §1

[48] = target: Gal(a1-3)Gal(b1-3)GlcNAc(b1-2)Man
Outline: as §1

[49] = target: Gal(a1-3)Gal(b1-3)GlcNAc(b1-2)Man(a1-3)[Gal(a1-3)Gal(b1-3)GlcNAc(b1-2)Man(a1-6)]Man(b1-4)GlcNAc(b1-4)GlcNAc
Outline: as §1

[50] = target: Gal(a1-3)Gal(b1-3)GlcNAc(b1-3)GalNAc
Outline: as §1

[51] = target: Gal(a1-3)Gal(b1-3)GlcNAc(b1-6)GalNAc
Outline: as §1

[52] = target: Gal(a1-3)Gal(b1-3)[Fuc(a1-4)]GlcNAc(b1-2)Man(a1-3)[Gal(a1-3)Gal(b1-3)[Fuc(a1-4)]GlcNAc(b1-2)Man(a1-6)]Man(b1-4)GlcNAc(b1-4)GlcNAc
Outline: as §1

Gal(a1-3)Gal(b1-4)Glc = target: Gal(a1-3)Gal(b1-4)Glc
Outline: as §1

Gal(a1-3)Gal(b1-4)GlcNAc = target: Gal(a1-3)Gal(b1-4)GlcNAc
Outline: as §1

B1: RobpsCRA (Robinia pseudoacacia) (protein)
chain: IKGGYWYSGSGLAVSDINPSHFTHLFCAFADLDPNTNKLTISSSNAAAFSTFTQTVRAKNPSVKTLLSIGGGGGRALAAVFANMASQASRRKSFIDSSIQLARRNNFHGLDLDWEYPSSDIDKTNFASLIREWRAAVATESSTSGTPALLLSAAVGGSDQITPLKYYPGEAIANNLDWVNVMTYDLYTSDSYPTLTQPPAPLFYPRGIFSADEGITKWIQSGVPESKLALGLPFYGFKWRLSDPNNHGLFAPATQGLGAVKYKDIVNTGGQVEFDSTYVTNYCFKGTDWYGYDDTQSISAKVAYAKQRGLFGYFAWHIEQDSNWALS
- glycan array binding signal (z-score) [1]: 0.1
- glycan array binding signal (z-score) [2]: -0.615
- glycan array binding signal (z-score) [3]: -0.452
- glycan array binding signal (z-score) [4]: -0.58
- glycan array binding signal (z-score) [5]: -0.131
- glycan array binding signal (z-score) [6]: -0.598
- glycan array binding signal (z-score) [7]: -0.494
- glycan array binding signal (z-score) [8]: -0.128
- glycan array binding signal (z-score) [9]: -0.195
- glycan array binding signal (z-score) [10]: -0.198
- glycan array binding signal (z-score) [11]: 0.265
- glycan array binding signal (z-score) [12]: 1.23
- glycan array binding signal (z-score) [13]: -0.598
- glycan array binding signal (z-score) [14]: -0.163
- glycan array binding signal (z-score) [15]: -0.124
- glycan array binding signal (z-score) [16]: -0.584
- glycan array binding signal (z-score) [17]: 0.174
- glycan array binding signal (z-score) [18]: -0.563
- glycan array binding signal (z-score) [19]: 0.206
- glycan array binding signal (z-score) [20]: 1.41
- glycan array binding signal (z-score) [21]: 0.278
- glycan array binding signal (z-score) [22]: 0.295
- glycan array binding signal (z-score) [23]: -0.213
- glycan array binding signal (z-score) [24]: -0.161
- glycan array binding signal (z-score) [25]: -0.158
- glycan array binding signal (z-score) [26]: -0.132
- glycan array binding signal (z-score) [27]: -0.375
- glycan array binding signal (z-score) [28]: 16.3
- glycan array binding signal (z-score) [29]: 1.45
- glycan array binding signal (z-score) [30]: 0.157
- glycan array binding signal (z-score) (Fuc(a1-3)GlcNAc): -0.634
- glycan array binding signal (z-score) [31]: -0.076
- glycan array binding signal (z-score) [32]: -0.341
- glycan array binding signal (z-score) [33]: -0.403
- glycan array binding signal (z-score) [34]: -0.2
- glycan array binding signal (z-score) [35]: 0.098
- glycan array binding signal (z-score) [36]: -0.007
- glycan array binding signal (z-score) [37]: -0.135
- glycan array binding signal (z-score) [38]: 0.192
- glycan array binding signal (z-score) [39]: 0.084
- glycan array binding signal (z-score) [40]: 0.263
- glycan array binding signal (z-score) [41]: -0.481
- glycan array binding signal (z-score) [42]: -0.318
- glycan array binding signal (z-score) [43]: -0.504
- glycan array binding signal (z-score) [44]: 0.518
- glycan array binding signal (z-score) [45]: 0.763
- glycan array binding signal (z-score) [46]: 1
- glycan array binding signal (z-score) [47]: 0.373
- glycan array binding signal (z-score) (Fuc(a1-4)GlcNAc): -0.31
- glycan array binding signal (z-score) (Fuc(b1-3)GlcNAc): 0.048
- glycan array binding signal (z-score) (Gal(a1-2)Gal): -0.237
- glycan array binding signal (z-score) (Gal(a1-3)Gal): 1.27
- glycan array binding signal (z-score) (Gal(a1-3)Gal(b1-3)GlcNAc): 0.181
- glycan array binding signal (z-score) [48]: 0.797
- glycan array binding signal (z-score) [49]: -0.7
- glycan array binding signal (z-score) [50]: -0.793
- glycan array binding signal (z-score) [51]: -0.356
- glycan array binding signal (z-score) [52]: 0.581
- glycan array binding signal (z-score) (Gal(a1-3)Gal(b1-4)Glc): -0.053
- glycan array binding signal (z-score) (Gal(a1-3)Gal(b1-4)GlcNAc): 0.596
